Source: patent US7786147B2, “Analogs of choline for neuroprotection and cognitive enhancement in neurodegenerative disorders” (Medical College of Georgia Research Institute., priority 2001, dated 2010)
Some of these results come from one statement about several compounds together. For at least one compound, name, drawing or mass did not settle the structure.

System: differentiated PC-12 cells
Experiment: MTT cell viability (neuroprotection) assay after neurotrophic factor withdrawal
Assay type: cell-based
Details: PC-12 cells deprived of neurotrophic factors for 24 hr; analog added at withdrawal; 0.1-10 mM; FIG. 5
Method: Cell Culture: PC12 cells were maintained in 150-cm^2 tissue-culture flasks in Dulbecco's Modified Eagles medium containing 7% horse serum, 7% fetal calf serum, 1% non-essential amino-acids and 1% streptomycin (DMEM). The cells were incubated at 37 C in a 5% CO2-enriched, humidified atmosphere. To attain maximum differentiation, the cells were maintained in DMEM.NGF medium for 7 days, with the medium being changed every 2 or 3 days.
Assay for Cell viability. Cells were dissociated by trituration and plated at 1×10^4 cells per well on poly-L-lysine coated 96 well plates containing DMEM.NGF media. […] Cell viability (cytotoxicity) was determined using the Cell Titer 96 non-radioactive cell proliferation/cytotoxicity assay kit (Promega), which is based on the cellular conversion of a 3-(4,5-dimethylthiazol-2-yl)-2,5-diphenyltetrazolium bromide (MTT) into a formazan product which can be detected spectrophotometrically. […] After an additional 4 hr incubation at 37 C, 100 l of solubilization/stop solution was added and the absorbance of solubilized MTT formazan products was measured at 570 nm.
Differentiated PC-12 cells were deprived of neurotrophic factors for 24 hr to promote cytotoxicity. Cell viability was measured by the MTT assay under control conditions, and in cultures in which a choline analog was introduced into the medium at the time of neurotrophic factor withdrawal. […]

Q: Which “improvement of cell viability” value does the source give for `C[N+]1(CCO)CCCC1` [pyrrolidinecholine] here?
A: over 60 % of baseline
